These are yes or no findings as the source states them, for the method shown. Binding seen in cells or lysates may run through a third protein. Binding can be weak; no strength is given.
B1: septin 2 (SEPT2), endogenous (protein, UniProt Q15019 1-361)
chain: MSKQQPTQFINPETPGYVGFANLPNQVHRKSVKKGFEFTLMVVGESGLGKSTLINSLFLTDLYPERVIPGAAEKIERTVQIEASTVEIEERGVKLRLTVVDTPGYGDAINCRDCFKTIISYIDEQFERYLHDESGLNRRHIIDNRVHCCFYFISPFGHGLKPLDVAFMKAIHNKVNIVPVIAKADTLTLKERERLKKRILDEIEEHNIKIYHLPDAESDEDEDFKEQTRLLKASIPFSVVGSNQLIEAKGKKVRGRLYPWGVVEVENPEHNDFLKLRTMLITHMQDLQEVTQDLHYENFRSERLKRGGRKVENEDMNKDQILLEKEAELRRMQEMIARMQAQMQMQMQGGDGDGGALGHHV
B2: septin 7 (SEPT7), endogenous (protein, UniProt Q16181 1-437)
chain: MSVSARSAAAEERSVNSSTMVAQQKNLEGYVGFANLPNQVYRKSVKRGFEFTLMVVGESGLGKSTLINSLFLTDLYSPEYPGPSHRIKKTVQVEQSKVLIKEGGVQLLLTIVDTPGFGDAVDNSNCWQPVIDYIDSKFEDYLNAESRVNRRQMPDNRVQCCLYFIAPSGHGLKPLDIEFMKRLHEKVNIIPLIAKADTLTPEECQQFKKQIMKEIQEHKIKIYEFPETDDEEENKLVKKIKDRLPLAVVGSNTIIEVNGKRVRGRQYPWGVAEVENGEHCDFTILRNMLIRTHMQDLKDVTNNVHYENYRSRKLAAVTYNGVDNNKNKGQLTKSPLAQMEEERREHVAKMKKMEMEMEQVFEMKVKEKVQKLKDSEAELQRRHEQMKKNLEAQHKELEEKRRQFEDEKANWEAQQRILEQQNSSRTLEKNKKKGKIF
B3: septin 9 (SEPT9), endogenous (protein, UniProt Q9UHD8 1-586)
chain: MKKSYSGGTRTSSGRLRRLGDSSGPALKRSFEVEEVETPNSTPPRRVQTPLLRATVASSTQKFQDLGVKNSEPSARHVDSLSQRSPKASLRRVELSGPKAAEPVSRRTELSIDISSKQVENAGAIGPSRFGLKRAEVLGHKTPEPAPRRTEITIVKPQESAHRRMEPPASKVPEVPTAPATDAAPKRVEIQMPKPAEAPTAPSPAQTLENSEPAPVSQLQSRLEPKPQPPVAEATPRSQEATEAAPSCVGDMADTPRDAGLKQAPASRNEKAPVDFGYVGIDSILEQMRRKAMKQGFEFNIMVVGQSGLGKSTLINTLFKSKISRKSVQPTSEERIPKTIEIKSITHDIEEKGVRMKLTVIDTPGFGDHINNENCWQPIMKFINDQYEKYLQEEVNINRKKRIPDTRVHCCLYFIPATGHSLRPLDIEFMKRLSKVVNIVPVIAKADTLTLEERVHFKQRITADLLSNGIDVYPQKEFDEDSEDRLVNEKFREMIPFAVVGSDHEYQVNGKRILGRKTKWGTIEVENTTHCEFAYLRDLLIRTHMQNIKDITSSIHFEAYRVKRLNEGSSAMANGMEEKEPEAPEM

Chains of the proteins cited; added tags and fusions are not shown. Lines headed by an entry give the natural chain unless they say otherwise; changes in a name come on top.
UniProt Q969T3: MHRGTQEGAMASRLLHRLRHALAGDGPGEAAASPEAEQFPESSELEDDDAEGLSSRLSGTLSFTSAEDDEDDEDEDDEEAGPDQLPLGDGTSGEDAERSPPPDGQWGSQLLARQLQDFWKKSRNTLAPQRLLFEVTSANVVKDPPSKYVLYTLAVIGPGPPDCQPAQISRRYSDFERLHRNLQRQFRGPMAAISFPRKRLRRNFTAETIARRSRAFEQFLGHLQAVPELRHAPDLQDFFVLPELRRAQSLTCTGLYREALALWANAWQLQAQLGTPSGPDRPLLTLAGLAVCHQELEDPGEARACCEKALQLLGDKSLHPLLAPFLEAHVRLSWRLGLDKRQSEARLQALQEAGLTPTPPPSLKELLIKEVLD

These binders were tested against GFP-SNX21 site-directed mutant of E370 (human) (UniProt Q969T3) (assay: co-IP; GFP-nanotrap precipitation of GFP-tagged constructs from transiently transfected HEK293-T lysates (50 mM Tris-HCl pH 7.4, 0.5% NP40), 1 h at 4°C; western blot for endogenous Htt and septins).

binding | Binder
binds | B1
binds | B2
binds | B3

The binders below were run against GFP-SNX21 site-directed mutant of L260 (human) (UniProt Q969T3) in the same assay as above.

binding | Binder
binds | B1
binds | B2
binds | B3

These binders were tested against GFP-SNX21 site-directed mutant of L332 (human) (UniProt Q969T3) in the same assay as above.

binding | Binder
binds | B1
binds | B2
binds | B3

What follows are binders tested against GFP-SNX21 site-directed mutant of L310 (human) (UniProt Q969T3) in the same assay as above.

binding | Binder
binds | B1
binds | B2
binds | B3

The binders below were run against GFP-SNX21 site-directed mutant of L313 (human) (UniProt Q969T3) in the same assay as above.

binding | Binder
binds | B1
binds | B2
binds | B3

Each binder was assayed against GFP-SNX21 site-directed mutant of E307 (human) (UniProt Q969T3) in the same assay as above.

binding | Binder
binds | B1
binds | B2
binds | B3

These binders were tested against GFP-SNX21 site-directed mutant of E365 (human) (UniProt Q969T3) in the same assay as above.

binding | Binder
binds | B1
binds | B2
binds | B3

Each binder was assayed against GFP-SNX21 site-directed mutant of I368 (human) (UniProt Q969T3) in the same assay as above.

binding | Binder
binds | B1
binds | B2
binds | B3

Each binder was assayed against GFP-SNX21 site-directed mutant of E270 (human) (UniProt Q969T3) in the same assay as above.

binding | Binder
binds | B1
binds | B2
binds | B3

Reference: paper PMC6140323
